Values quoted from earlier work as cited in patent publication US11478550B2, “Biodegradable hydrogel and methods for use thereof” (International Business Machines Corporation, priority 2018, dated 2022).
For at least one compound, name, drawing or mass did not settle the structure.

Test system: refractory and/or relapsed MM
Settings: single agent; cited from earlier work

## C[C@@H]1C[C@H]2[C@@H]3CCC4=CC(=O)C=C[C@]4(C)[C@@]3(F)[C@@H](O)C[C@]2(C)[C@@]1(O)C(=O)CO [dexamethasone]
  1-year overall survival rate: 66%
